Measured values published in doi:10.1101/2023.07.28.550915.
Where two headings read alike, the source gives them in different places. Results are given in words; binding and its absence hold for the method and conditions named. Binding seen in cells or lysates may run through a third protein. Some binding calls cover weakened binding; strength is not graded here. For part of these data: Sequences can lack the tags named with a protein.

Chains of the proteins cited; added tags and fusions are not shown.
UniProt P49674: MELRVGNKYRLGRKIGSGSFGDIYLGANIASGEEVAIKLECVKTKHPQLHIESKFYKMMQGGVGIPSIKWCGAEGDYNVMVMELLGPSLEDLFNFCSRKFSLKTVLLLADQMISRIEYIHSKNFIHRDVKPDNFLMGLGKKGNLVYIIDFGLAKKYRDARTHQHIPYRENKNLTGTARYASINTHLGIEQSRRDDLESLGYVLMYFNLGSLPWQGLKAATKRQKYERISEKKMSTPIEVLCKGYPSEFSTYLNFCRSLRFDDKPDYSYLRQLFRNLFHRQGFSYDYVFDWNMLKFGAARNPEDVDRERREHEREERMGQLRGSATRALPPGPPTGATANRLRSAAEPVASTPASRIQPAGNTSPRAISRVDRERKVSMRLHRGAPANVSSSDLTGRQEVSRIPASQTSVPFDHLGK

T1: Flag-tagged human DVL3 (Dishevelled 3), wild type (human) (UniProt Q92997)
T1 sequence: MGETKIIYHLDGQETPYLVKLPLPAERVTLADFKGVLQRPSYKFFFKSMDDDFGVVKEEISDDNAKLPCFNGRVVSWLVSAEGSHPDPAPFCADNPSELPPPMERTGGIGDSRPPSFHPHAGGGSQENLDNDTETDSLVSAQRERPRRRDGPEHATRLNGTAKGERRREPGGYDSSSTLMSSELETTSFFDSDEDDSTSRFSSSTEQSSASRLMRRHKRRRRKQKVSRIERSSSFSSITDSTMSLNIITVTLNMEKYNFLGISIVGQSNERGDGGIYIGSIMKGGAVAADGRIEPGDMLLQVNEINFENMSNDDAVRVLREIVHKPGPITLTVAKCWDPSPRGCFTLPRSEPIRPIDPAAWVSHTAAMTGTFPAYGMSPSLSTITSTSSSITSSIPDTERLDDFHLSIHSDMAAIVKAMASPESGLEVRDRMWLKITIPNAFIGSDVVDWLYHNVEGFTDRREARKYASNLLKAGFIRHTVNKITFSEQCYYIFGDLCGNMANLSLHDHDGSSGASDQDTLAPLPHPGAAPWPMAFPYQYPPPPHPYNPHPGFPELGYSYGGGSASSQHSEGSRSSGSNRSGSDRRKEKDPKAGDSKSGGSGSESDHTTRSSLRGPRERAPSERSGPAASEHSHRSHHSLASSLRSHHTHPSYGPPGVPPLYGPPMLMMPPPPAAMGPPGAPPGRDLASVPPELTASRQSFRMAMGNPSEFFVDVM

T2: DVL1 (human) (UniProt O14640)
T2 sequence: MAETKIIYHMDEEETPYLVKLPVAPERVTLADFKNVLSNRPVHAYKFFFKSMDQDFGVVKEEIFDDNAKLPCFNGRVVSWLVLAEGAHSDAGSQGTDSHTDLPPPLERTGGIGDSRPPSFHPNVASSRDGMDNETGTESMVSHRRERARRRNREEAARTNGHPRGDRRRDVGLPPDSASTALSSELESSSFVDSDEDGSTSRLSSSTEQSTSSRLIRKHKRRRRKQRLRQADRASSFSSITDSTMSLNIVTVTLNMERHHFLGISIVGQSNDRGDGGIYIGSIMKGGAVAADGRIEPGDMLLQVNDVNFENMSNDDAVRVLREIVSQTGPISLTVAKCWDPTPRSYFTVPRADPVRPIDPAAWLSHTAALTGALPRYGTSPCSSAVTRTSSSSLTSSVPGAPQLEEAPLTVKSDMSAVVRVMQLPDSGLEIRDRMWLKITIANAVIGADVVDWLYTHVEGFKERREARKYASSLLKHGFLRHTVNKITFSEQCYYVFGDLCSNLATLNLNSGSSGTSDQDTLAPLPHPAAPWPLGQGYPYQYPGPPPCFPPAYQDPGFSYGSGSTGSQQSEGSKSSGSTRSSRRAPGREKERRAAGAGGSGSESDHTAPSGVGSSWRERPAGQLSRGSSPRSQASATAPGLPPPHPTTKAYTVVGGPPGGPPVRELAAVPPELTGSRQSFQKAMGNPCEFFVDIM

T3: DVL3 E710A/D714A (glutamylation-defective DVL3) (human) (UniProt Q92997)
T3 sequence: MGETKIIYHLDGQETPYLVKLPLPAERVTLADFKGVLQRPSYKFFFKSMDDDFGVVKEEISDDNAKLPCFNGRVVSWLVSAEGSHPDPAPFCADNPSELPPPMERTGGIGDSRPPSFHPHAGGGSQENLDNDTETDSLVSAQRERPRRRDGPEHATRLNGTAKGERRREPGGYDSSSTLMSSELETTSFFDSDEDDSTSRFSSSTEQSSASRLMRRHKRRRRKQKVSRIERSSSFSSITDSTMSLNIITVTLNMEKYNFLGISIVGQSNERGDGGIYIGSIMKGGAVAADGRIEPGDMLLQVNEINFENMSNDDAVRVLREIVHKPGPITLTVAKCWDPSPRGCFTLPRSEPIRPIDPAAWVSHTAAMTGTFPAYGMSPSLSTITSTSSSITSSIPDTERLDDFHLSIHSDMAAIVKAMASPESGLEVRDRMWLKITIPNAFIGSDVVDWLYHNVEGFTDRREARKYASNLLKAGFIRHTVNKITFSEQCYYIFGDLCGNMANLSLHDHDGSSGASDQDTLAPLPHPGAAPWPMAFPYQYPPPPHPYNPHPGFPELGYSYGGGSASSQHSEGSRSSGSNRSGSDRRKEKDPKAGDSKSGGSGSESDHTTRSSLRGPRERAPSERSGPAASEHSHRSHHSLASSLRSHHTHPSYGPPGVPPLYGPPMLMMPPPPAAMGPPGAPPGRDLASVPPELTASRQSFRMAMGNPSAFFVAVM


Tests used:
Assay in all cases: co-IP
[1] = biological target: T1, Flag-tagged human DVL3 (Dishevelled 3), wild type (human)
[2] = biological target: T1, Flag-tagged human DVL3 (Dishevelled 3), wild type (human); remark: listed apart in the source
DVL1 (human) = biological target: T2, DVL1 (human)
[3] = biological target: T3, DVL3 E710A/D714A (glutamylation-defective DVL3) (human)

| Molecule | binding [1] | binding [2] | binding (DVL1 (human)) | binding [3] |
| --- | --- | --- | --- | --- |
| casein kinase 1 (CK1) ε, endogenous (from UniProt P49674 1-416) (enzyme) | binds |  |  |  |
| human TTLL11 (tubulin tyrosine ligase-like 11) (enzyme, UniProt Q8NHH1 1-710) MRRGSSESELAARWEAEAVAAAKAAAKAEAEATAETVAEQVRVDAGAAGEPECKAGEEQPKVLAPAPAQPSAAEEGNTQVLQRPPPTLPPSKPKPVQGLCPHGKPRDKGRSCKRSSGHGSGENGSQRPVTVDSSKARTSLDALKISIRQLKWKEFPFGRRLPCDIYWHGVSFHDNDIFSGQVNKFPGMTEMVRKITLSRAVRTMQNLFPEEYNFYPRSWILPDEFQLFVAQVQMVKDDDPSWKPTFIVKPDGGCQGDGIYLIKDPSDIRLAGTLQSRPAVVQEYICKPLLIDKLKFDIRLYVLLKSLDPLEIYIAKDGLSRFCTEPYQEPTPKNLHRIFMHLTNYSLNIHSGNFIHSDSASTGSKRTFSSILCRLSSKGVDIKKVWSDIISVVIKTVIALTPELKVFYQSDIPTGRPGPTCFQILGFDILLMKNLKPILLEVNANPSMRIEHEHELSPGVFENVPSLVDEEVKVAVIRDTLRLMDPLKKKRENQSQQLEKPFAGKEDALDGELTSAPDCNANPEAHLPSICLKQVFPKYAKQFNYLRLVDRMANLFIRFLGIKGTMKLGPTGFRTFIRSCKLSSSSLSMAAVDILYIDITRRWNSMTLDQRDSGMCLQAFVEAFFFLAQRKFKMLPLHEQVASLIDLCEYHLSLLDEKRLVCGRGVPSGGRPPHRGPPQEPSPSAQPAGDNPPPRTSCANKLSHPRHTLS |  | binds | binds |  |
| CCP6 (cytosolic carboxypeptidase 6), EYFP-tagged (enzyme, UniProt Q09LZ8 1-540) MAERSQTAPEAGNDTGNEDAIGGNVNKYIVLPNGYSGQPKKGHLTFDACFESGNLGRVEQVSDFEYDLFIRPDTCNPRFRVWFNFTVENVKELQRVIFNIVNFSKTKSLYRDGMAPMVKSTSRPKWQRLPPKNVYYYRCPDHRKNYVMSFAFCFDREDDIYQFAYCYPYTYTRFQHYLDSLQKKNMDYFFREQLGQSVQQRQLDLLTITSPENLREGSEKKVIFITGRVHPGETPSSFVCQGIIDFLVSQHPIARVLREHLVFKIAPMLNPDGVYLGNYRCSLMGFDLNRHWLDPSPWAHPTLHGVKQLIIKMYNDPKTSLEFYIDIHAHSTMMNGFMYGNIFEDEERFQRQSIFPKLLCQNAEDFSYTSTSFNRDAVKAGTGRRFLGGLLDHSSYCYTLEVSFYSYIIGGTTAAVPYTEEAYMKLGRNVARTFLDYYRLNSLVEKIAVPMPRLRSKEERRLGWEHPSCLRAEQPLEVLGIPMCSGKALNEHLGNDIQWHLDCGSSTLPLGLISCSPSSSASWNDMAMSNSILLPDHSFH |  | binds |  | binds |
| CCP1 (cytosolic carboxypeptidase 1), EYFP-tagged (enzyme, UniProt Q641K1 1-1218) MSKLKVVGEKSLTNSSRVVGLLAQLEKINTDSTESDTARYVTSKILHLAQSQEKTRREMTTKGSTGMEVLLSTLENTKDLQTVLNILSILIELVSSGGGRRASFLVAKGGSQILLQLLMNASKDSPPHEEVMVQTHSILAKIGPKDKKFGVKARVNGALTVTLNLVKQHFQNYRLVLPCLQLLRVYSTNSVNSVSLGKNGVVELMFKIIGPFSKKNSGLMKVALDTLAALLKSKTNARRAVDRGYVQVLLTIYVDWHRHDNRHRNMLIRKGILQSLKSVTNIKLGRKAFIDANGMKILYNTSQECLAVRTLDPLVNTSSLIMRKCFPKNRLPLPTIKSSFHFQLPIIPVTGPVAQLYSLPPEVDDVVDESDDNDDIDLEVENELENEDDLDQSFKNDDIETDINKLRPQQVPGRTIEELKMYEHLFPELVDDFQDYELISKEPKPFVFEGKARGPIVVPTAGEEVPGNSGSVKKGVVMKERASPKGEEAKEDPKGHDRTLPQQLGGQSRVAPSAHSFNNDLVKALDRITLQNVPSQVASGLNAGMRKDFGLPLTVLSCTKACPHVAKCGSTLFEGRTVHLGKLCCTGVETEDDEDTESHSSTEQAPSVEASDGPTLHDPDLYIEIVKNTKSVPEYSEVAYPDYFGHIPPPFKEPILERPYGVQRTKIAQDIERLIHQNDIIDRVVYDLDNPTYTTPEEGDTLKFNSKFESGNLRKVIQIRKSEYDLILNSDINSNHYHQWFYFEVSGMRPGVAYRFNIINCEKSNSQFNYGMQPLMYSVQEALNARPWWIRMGTDICYYKNHFSRSSVAAGGQKGKSYYTITFTVNFPHKDDVCYFAYHYPYTYSTLQMHLQKLESAHNPQQIYFRKDVLCETLSGNICPLVTITAMPESNYYEHICQFRTRPYIFLSARVHPGETNASWVMKGTLEYLMSNSPTAQSLRESYIFKIVPMLNPDGVINGNHRCSLSGEDLNRQWQSPNPELHPTIYHAKGLLQYLAAVKRLPLVYCDYHGHSRKKNVFMYGCSIKETVWHTHDNSASCDIVEDMGYRTLPKILSHIAPAFCMSSCSFVVEKSKESTARVVVWREIGVQRSYTMESTLCGCDQGRYKGLQIGTRELEEMGAKFCVGLLRLKRLTSSLEYNLPSNLLDFENDLIESSCKVTSPTTYVLDEDEPRFLEEVDYSAESNDELDVELAENTGDYEPSAQEEALSDSEVSRTHLI |  | binds |  | binds |
| CCP5 (cytosolic carboxypeptidase 5), EYFP-tagged (enzyme, UniProt Q09M02 1-886) MELRCGGLLFSSRFDSGNLAHVEKVETVSSDGEGVGGVATAPASGSAASPDYEFNVWTRPDCAETEYENGNRSWFYFSVRGGTPGKLIKINIMNMNKQSKLYSQGMAPFVRTLPSRPRWERIRERPTFEMTETQFVLSFVHRFVEGRGATTFFAFCYPFSYSDCQDLLSQLDQRFSENYSTHSSPLDSIYYHRELLCYSLDGLRVDLLTITSCHGLRDDREPRLEQLFPDLGTPRPFRFTGKRIFFLSSRVHPGETPSSFVFNGFLDFILRPDDPRAQTLRRLFVFKLIPMLNPDGVVRGHYRTDSRGVNLNRQYLKPDAVLHPAIYGAKAVLLYHHVHSRLNAKSPTNQQPTLHLPPEAPLSDLEKANNLHNEAHLGQSPDGENPATWPETEPAEEKTDPVWLMPQPIPELEEPAPDTIPPKESGVAYYVDLHGHASKRGCFMYGNSFSDESTQVENMLYPKLISLNSAHFDFQGCNFSEKNMYARDRRDGQSKEGSGRVAIYKASGIIHSYTLECNYNTGRSVNSIPAACHDNGRASPPPPPAFPSRYTVELFEQVGRAMAIAALDMAECNPWPRIVLSEHSSLTNLRAWMLRHVRNSRGLTSAGNMGASKKRGARTPPKSNNSLPVSCSENALSRVRSFSTGTSTGGSSSSQQNSPQMKNSPSFPFHGSRTAGLPGLGSSTQKVSHRVLGPVREPRCSDRRRRQQPLNHRSTTSSLAPSPTLASSGPTSSRNMGSCLLPNSLSLSGSSCSFSSSGDKPEAVMVIGKSLLGAGARIPCIRTRLQARPRLGRSSPPTRRGMRGSSPTSPIPQTRESSELEPGPHSATPGLPQAGPPRPRSAPAFSPISCTLSDSPSRICYSRGLLNQCEVCFVPKSPPLTISPRV |  | binds |  | binds |
